Source: article PMC3897518

B1: VP28-V5 (protein, UniProt Q9ICB7 1-204)
chain: MDLSFTLSVVSAILAITAVIAVFIVIFRYHNTVTKTIETHTDNIETNMDENLRIPVTAEVGSGYFKMTDVSFDSDTLGKIKIRNGKSDAQMKEEDADLVITPVEGRALEVTVGQNLTFEGTFKVWNNTSRKINITGMQMVPKINPSKAFVGSSNTSSFTPVSIDEDEVGTFVCGTTFGAPIAATAGGNLFDMYVHVTYSGTETE
B2: WSSV VP28, GAL4-AD prey (protein, UniProt Q9ICB7 1-204)
chain: B1 chain

Columns and labels:
[1] = molecular target: FLAG-tagged VP11 (VP11-FLAG) (White spot syndrome virus (WSSV-TW strain)); assay: co-IP; VP11-FLAG and V5-tagged candidates co-expressed in Sf9 cells; NP-40 lysis buffer (50 mM Tris-HCl pH 8.0, 150 mM NaCl, 1% NP-40); anti-FLAG M2 affinity gel at 4°C overnight; blot with anti-V5 antibody
[2] = molecular target: GAL4 DNA-BD fused WSSV VP11 (aa 168-433) (White spot syndrome virus (WSSV-TW strain)); assay: two-hybrid; Matchmaker Gold yeast two-hybrid, mating of Y2HGold with bait GAL4 DNA-BD-VP11 (aa 168-433) and Y187 with GAL4-AD preys; selection on DDO/X/A and then QDO/X/A medium

| Binder | binding [1] | binding [2] |
| --- | --- | --- |
| B1 | binds | – |
| B2 | – | binds |

Results are given in words; binding and its absence hold for the method and conditions named. A result given as binding can be weak or reduced; the word gives no strength. Sequences can lack the tags named with a protein. For some assays here: Binding seen in cells or lysates may run through a third protein.
